Results are given in words; binding and its absence hold for the method and conditions named. For some assays here: Binding seen in cells or lysates may run through a third protein. Some results given as binding are weak or reduced against the parent protein; the word gives no strength. For some assays here: Sequences can lack the tags named with a protein.
Key:
Myc-tagged JAK1 (human) = Myc-tagged JAK1 (human) (UniProt P23458); experiment: co-IP
[1] = molecular target: T1, endogenous STAT1 of HEK-293T cells treated with IFN-β (human (endogenous in HEK-293T)), P42224; experiment: native gel or EMSA; HEK-293T transfected with empty vector or Flag-3D, treated with IFN-β (1,000 U/mL) or solvent for 30 min; lysates on native PAGE and SDS-PAGE, blotted; details: remark: other sources report otherwise
T1 chain: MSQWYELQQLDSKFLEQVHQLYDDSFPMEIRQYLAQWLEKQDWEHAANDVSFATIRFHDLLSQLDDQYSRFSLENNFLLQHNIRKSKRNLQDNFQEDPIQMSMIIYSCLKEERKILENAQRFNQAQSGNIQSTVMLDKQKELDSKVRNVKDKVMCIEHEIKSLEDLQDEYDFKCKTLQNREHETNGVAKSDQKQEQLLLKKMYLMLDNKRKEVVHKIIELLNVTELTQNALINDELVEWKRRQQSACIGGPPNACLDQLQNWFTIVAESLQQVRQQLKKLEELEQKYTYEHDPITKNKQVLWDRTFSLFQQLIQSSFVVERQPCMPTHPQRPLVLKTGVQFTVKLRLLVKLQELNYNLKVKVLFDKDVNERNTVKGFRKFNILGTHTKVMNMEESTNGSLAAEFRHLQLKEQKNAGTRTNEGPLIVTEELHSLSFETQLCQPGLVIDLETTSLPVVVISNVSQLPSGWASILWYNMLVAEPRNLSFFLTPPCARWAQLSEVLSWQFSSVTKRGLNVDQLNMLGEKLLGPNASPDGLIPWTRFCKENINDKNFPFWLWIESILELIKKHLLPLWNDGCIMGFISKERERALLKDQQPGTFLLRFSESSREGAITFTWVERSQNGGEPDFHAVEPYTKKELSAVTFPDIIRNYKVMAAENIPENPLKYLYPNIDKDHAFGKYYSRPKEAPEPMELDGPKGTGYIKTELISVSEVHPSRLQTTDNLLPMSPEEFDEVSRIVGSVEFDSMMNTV

By UniProt entry, the sequences of proteins in these tests, tags left out.
UniProt P23458: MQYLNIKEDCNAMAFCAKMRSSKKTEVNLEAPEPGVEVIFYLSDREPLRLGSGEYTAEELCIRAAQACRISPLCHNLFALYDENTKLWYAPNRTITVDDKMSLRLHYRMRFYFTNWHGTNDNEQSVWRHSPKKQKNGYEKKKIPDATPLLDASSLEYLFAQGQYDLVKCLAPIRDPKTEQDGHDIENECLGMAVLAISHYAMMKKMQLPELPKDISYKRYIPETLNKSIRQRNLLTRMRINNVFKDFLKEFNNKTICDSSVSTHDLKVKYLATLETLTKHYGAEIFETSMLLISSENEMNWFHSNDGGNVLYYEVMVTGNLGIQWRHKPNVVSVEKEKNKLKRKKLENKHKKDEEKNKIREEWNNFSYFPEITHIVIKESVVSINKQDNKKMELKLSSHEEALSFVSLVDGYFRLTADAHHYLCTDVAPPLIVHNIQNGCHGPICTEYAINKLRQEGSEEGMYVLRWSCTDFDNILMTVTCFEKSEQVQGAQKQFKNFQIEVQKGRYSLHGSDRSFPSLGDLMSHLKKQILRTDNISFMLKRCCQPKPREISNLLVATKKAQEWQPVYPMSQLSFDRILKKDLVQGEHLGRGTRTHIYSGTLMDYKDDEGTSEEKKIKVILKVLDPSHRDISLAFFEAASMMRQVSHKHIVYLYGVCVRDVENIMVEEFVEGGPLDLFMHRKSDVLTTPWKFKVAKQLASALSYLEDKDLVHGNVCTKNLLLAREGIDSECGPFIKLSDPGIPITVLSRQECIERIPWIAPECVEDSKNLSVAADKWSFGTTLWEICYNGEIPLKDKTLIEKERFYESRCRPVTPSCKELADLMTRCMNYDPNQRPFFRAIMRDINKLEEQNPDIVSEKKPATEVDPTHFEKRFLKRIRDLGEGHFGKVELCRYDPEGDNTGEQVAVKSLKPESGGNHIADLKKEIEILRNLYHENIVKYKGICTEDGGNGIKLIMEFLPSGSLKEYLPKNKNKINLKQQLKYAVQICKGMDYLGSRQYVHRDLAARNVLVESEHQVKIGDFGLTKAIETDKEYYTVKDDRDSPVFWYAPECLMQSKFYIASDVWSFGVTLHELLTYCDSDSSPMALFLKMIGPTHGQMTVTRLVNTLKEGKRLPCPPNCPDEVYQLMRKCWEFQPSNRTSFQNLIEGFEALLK

B1: HA-tagged RNF125 (protein, UniProt Q96EQ8 1-232)
chain: MGSVLSTDSGKSAPASATARALERRRDPELPVTSFDCAVCLEVLHQPVRTRCGHVFCRSCIATSLKNNKWTCPYCRAYLPSEGVPATDVAKRMKSEYKNCAECDTLVCLSEMRAHIRTCQKYIDKYGPLQELEETAARCVCPFCQRELYEDSLLDHCITHHRSERRPVFCPLCRLIPDENPSSFSGSLIRHLQVSHTLFYDDFIDFNIIEEALIRRVLDRSLLEYVNHSNTT
binding (Myc-tagged JAK1 (human)): binds

B2: endogenous STAT1 of HEK-293T cells treated with IFN-β, P42224 1-750 (protein)
chain: T1 chain
modifications: here or on the partner: phosphorylated after IFN-β (site not given); phosphorylated after IFN-β (site not given)
binding [1]: binds
